Experimental data: patent US12728134B2, “Liquisolid pharmaceutical formulation and process for manufacturing” (RHEINISCHE FRIEDRICH-WILHELMS-UNIVERSITÄT BONN, priority 2020, dated 2026)

Test: Biphasic dissolution test (BiPHa+)
Type: in vitro ADME
Conditions: same in vitro biphasic dissolution conditions, in words
Text: This approach was chosen to simulate the gastrointestinal properties to obtain in vivo predictive results.
The transition to the organic phase can be understood as absorption of active substances into the blood.
To simulate the gastrointestinal properties to obtain in vivo predictive results, the pH-profile, bile salt concentration and gastrointestinal passage time were adjusted in the aqueous phase to mimic human gut conditions. An organic phase of 1-decanol above the aqueous phase imitated the fraction absorbed from the gut. As a test model, the profile of a person without prior food intake was chosen. Therefore, FaSSIF-V2 medium, which represents the bile salts concentration of a fasted human was used. […] To generate an in-situ biorelevant aqueous medium for the fasted state, biorelevant surfactants, namely sodium-taurocholate (3 mM) and lecithin (0.2 mM), were added.
Prior to the start of the experiments, both phases, 1-decanol and the acidic aqueous phase, were saturated with each other. First, the respective formulation was added (Table 2) to 50 mL HCl (0.1 M), simulating the stomach. During the first 30 min the formulation disintegrated/dispersed in 50 ml of 0.1 M HCl. […]

- result of propylene carbonate formulation compared to commercially available market formulation: even better results
Structure (SMILES): COc1ccc2cc([C@H](C)C(=O)O)ccc2c1 [Naproxen]
